Measured values from paper PMC6395066.
These are yes or no findings as the source states them, for the method shown. Binding calls can cover weak binding; strength is not graded here. Tags and fused reporters may be left off the sequences shown.

Target: T1, myc-tagged full-length Dystroglycan (UniProt Q62165)
T1 sequence: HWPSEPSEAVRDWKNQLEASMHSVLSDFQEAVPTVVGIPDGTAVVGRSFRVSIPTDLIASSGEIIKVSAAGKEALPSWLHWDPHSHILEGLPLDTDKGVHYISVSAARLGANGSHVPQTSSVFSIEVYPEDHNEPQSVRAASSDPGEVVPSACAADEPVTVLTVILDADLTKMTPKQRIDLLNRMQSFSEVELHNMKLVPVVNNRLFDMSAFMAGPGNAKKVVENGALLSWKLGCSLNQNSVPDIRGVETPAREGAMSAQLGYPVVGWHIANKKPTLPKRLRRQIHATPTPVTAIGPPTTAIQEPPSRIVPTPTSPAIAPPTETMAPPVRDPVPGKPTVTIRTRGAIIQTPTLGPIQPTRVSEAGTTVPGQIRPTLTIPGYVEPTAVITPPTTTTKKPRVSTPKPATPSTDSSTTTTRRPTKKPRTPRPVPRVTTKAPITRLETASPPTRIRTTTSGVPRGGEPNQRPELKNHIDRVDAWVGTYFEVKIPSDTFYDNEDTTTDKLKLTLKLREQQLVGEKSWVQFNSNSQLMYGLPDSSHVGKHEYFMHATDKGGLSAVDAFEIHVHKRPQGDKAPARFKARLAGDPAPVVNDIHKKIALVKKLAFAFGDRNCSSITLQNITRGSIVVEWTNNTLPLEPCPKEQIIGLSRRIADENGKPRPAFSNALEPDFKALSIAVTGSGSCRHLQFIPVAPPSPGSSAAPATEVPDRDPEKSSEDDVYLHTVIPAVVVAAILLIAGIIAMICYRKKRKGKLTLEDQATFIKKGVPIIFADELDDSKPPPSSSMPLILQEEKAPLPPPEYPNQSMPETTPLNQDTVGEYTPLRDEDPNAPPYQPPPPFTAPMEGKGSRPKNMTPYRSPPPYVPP
Experiment: AP-tagged ligand binding to live cells; COS7 cells transfected with myc-tagged full-length Dystroglycan, 5 nM AP-tagged ligand at 37° for 30 min, bound AP developed with BCIP/NBT

| binding | Substance |
| --- | --- |
| binds | Alkaline Phosphatase-tagged Celsr3-LG1 domain (M. musculus) (domain or fragment) |
| no binding (tested: 5 nM) | Alkaline Phosphatase-tagged Celsr3-LG2 domain (M. musculus) (domain or fragment) |
